In PMC4105440:
These are yes or no findings as the source states them, for the method shown. Binding seen in cells or lysates may run through a third protein. Some binding calls cover weakened binding; strength is not graded here.

Protein sequences, listed by entry. Tags and fused reporters are not part of them.
UniProt P09874: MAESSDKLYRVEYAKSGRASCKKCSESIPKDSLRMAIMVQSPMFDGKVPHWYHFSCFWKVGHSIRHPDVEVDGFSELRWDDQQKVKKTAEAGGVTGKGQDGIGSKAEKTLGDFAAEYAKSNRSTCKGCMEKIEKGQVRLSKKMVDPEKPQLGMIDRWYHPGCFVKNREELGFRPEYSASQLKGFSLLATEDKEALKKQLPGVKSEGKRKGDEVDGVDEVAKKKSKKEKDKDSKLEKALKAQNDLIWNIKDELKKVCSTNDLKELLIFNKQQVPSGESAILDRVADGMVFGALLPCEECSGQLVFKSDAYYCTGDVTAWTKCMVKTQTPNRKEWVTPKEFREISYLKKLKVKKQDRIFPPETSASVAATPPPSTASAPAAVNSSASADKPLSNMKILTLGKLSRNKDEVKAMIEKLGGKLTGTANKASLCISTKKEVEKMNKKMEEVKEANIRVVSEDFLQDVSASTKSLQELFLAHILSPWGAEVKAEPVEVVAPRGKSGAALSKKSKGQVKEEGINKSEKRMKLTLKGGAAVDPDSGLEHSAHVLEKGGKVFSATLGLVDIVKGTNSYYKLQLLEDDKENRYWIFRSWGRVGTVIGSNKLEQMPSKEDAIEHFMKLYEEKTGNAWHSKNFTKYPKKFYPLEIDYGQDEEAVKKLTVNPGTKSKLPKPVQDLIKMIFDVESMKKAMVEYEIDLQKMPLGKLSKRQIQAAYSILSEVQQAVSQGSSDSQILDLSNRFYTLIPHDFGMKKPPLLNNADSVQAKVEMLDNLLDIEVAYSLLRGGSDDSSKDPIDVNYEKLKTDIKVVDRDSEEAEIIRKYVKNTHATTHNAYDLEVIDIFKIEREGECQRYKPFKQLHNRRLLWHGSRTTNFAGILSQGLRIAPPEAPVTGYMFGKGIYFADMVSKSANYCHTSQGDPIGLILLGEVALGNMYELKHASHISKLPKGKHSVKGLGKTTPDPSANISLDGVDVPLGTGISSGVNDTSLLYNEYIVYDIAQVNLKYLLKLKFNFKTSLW
UniProt P08047: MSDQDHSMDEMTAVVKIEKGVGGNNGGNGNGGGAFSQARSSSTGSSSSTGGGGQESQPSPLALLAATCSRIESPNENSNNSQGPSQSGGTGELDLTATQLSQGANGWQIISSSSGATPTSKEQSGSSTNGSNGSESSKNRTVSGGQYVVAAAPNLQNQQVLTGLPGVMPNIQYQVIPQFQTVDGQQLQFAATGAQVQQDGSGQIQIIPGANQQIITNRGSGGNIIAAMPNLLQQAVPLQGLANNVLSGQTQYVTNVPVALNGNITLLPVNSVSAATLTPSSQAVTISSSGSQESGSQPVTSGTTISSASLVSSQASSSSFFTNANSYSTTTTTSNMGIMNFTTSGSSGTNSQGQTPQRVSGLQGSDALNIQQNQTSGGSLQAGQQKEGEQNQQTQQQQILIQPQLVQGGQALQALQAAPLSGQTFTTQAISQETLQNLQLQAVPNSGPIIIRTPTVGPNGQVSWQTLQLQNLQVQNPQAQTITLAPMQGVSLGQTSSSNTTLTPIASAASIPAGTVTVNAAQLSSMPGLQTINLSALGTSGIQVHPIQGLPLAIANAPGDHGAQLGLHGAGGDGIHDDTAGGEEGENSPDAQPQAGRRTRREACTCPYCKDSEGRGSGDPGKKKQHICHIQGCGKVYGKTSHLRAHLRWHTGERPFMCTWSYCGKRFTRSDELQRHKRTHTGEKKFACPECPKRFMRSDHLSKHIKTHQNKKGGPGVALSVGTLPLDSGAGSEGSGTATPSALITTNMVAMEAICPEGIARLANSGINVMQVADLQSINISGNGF

Target: Poly(ADP-ribose)polymerase-1 (human (endogenous in FB1329 fibroblasts)) (UniProt P09874)
Assay: co-IP; unpublished observation; co-immunoprecipitation from FB1329 fibroblast extracts of quiescent, serum-reactivated or PARP-inhibited cells; which protein was precipitated is not told

In the case of SP1 (from UniProt P08047 1-785), the binding is reported as “binds”.
